This is one part of the list.
Columns and labels:
Assay in all cases: protein microarray (ProtoArray v5.0), streptavidin-Alexa Fluor 647
Conditions in all cases: 3'-biotin; 20 mM Tris (pH 7.5), 5 mM MgCl2, 100 mM KCl, 0.1% Tween-20, A/T-rich and random oligonucleotide blockers; temperature not stated; high values mean tight binding
[1] = test system: Serine/threonine-protein kinase Chk2 (human)
[2] = test system: Serine/threonine-protein kinase D2 (human)
[3] = test system: Serine/threonine-protein kinase MRCK alpha (human)
[4] = test system: Serine/threonine-protein kinase Nek6 (human)
[5] = test system: Serine/threonine-protein kinase PAK 2 (human)
[6] = test system: Serine/threonine-protein kinase Sgk3 (human)
[7] = test system: Serine/threonine-protein kinase ULK4 (human)
[8] = test system: Serine/threonine-protein phosphatase 2A 56 kDa regulatory subunit gamma isoform (human)
[9] = test system: Serine/threonine-protein phosphatase 2A 65 kDa regulatory subunit A beta isoform (human)
[10] = test system: Serine/threonine-protein phosphatase 4 regulatory subunit 3A (human)

Q: “GGGAGGCTGAGGCAGG [G4-1 biotinylated (PQS2)]” was tested. Which binding signal [1] did it give?
A: -0.267 z-score

Q: And the binding signal [2]?
A: -0.307 z-score

Q: And the binding signal [3]?
A: -0.352 z-score

Q: And the binding signal [4]?
A: -0.312 z-score

Q: And the binding signal [5]?
A: -0.245 z-score

Q: What about the binding signal [6] of the same sequence?
A: -0.244 z-score

Q: And the binding signal [7]?
A: -0.32 z-score

Q: And the binding signal [8]?
A: -0.353 z-score

Q: What about the binding signal [9] of the same sequence?
A: -0.359 z-score

Q: What about the binding signal [10] of the same sequence?
A: -0.338 z-score
